Structures can show the parent of a compound that is named as a salt. The list shows a part of the results. Repeats in this data set agree poorly, so a single value says little.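 ReNCell VM, a human fetal ventral-midbrain neural progenitor line, was differentiated without mitogens. Blinded raters scored images stained for doublecortin (early neurons) or tyrosine hydroxylase (dopaminergic neurons) against untreated wells (0 = no change). Scores were averaged across repeats and both raters, and compounds averaging 2 or more were selected as hits for retesting.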
Each compound was assayed on ReNCell VM (assay: neuronal differentiation score (DCX+ cell fraction vs untreated, manual image score) (score (-3 to 3)); higher = more neuronal differentiation). Details: library: LOPAC; 2 uM; 2 weeks.

| Structure (SMILES) | neuronal differentiation score |
| --- | --- |
| O=C(O)c1ccccc1Nc1ccccc1 [N-Phenylanthranilic acid] | inactive: 0 |
| CC(C)(C)[C@]1(O)CCN2C[C@H]3c4ccccc4CCc4cccc(c43)[C@@H]2C1 [(+)-Butaclamol hydrochloride] | inactive: 1 |
| O=C(Nc1nc2ccccc2n1CCN1CCOCC1)c1cccc([N+](=O)[O-])c1 [IRAK-1/4 Inhibitor I] | inactive: 0 |
| N[C@@H](CS(=O)O)C(=O)O [L-Cysteinesulfinic Acid] | inactive: 0 |
| N[C@@H](COP(=O)(O)O)C(=O)O [O-Phospho-L-serine] | inactive: 0 |
| CCN(CC)CCNC(=O)c1cc(Cl)c(N)cc1OC [Metoclopramide hydrochloride] | inactive: 0 |
| C=CC[C@H](N)C(=O)O [L-allylglycine] | inactive: 0 |
| CCN1C(=O)C=CC1=O [N-Ethylmaleimide] | inactive: 1 |

Same assay, conditions: library: Phytochemical; 2 uM; 2 weeks

| Structure (SMILES) | neuronal differentiation score |
| --- | --- |
| COc1cc(CNC(=O)CCCC/C=C/C(C)C)ccc1O [Capsaicin] | inactive: 0 |
| O=c1oc2c(O)c(O)cc3c(=O)oc4c(O)c(O)cc1c4c23 [Ellagic Acid] | inactive: 0 |
| O=C(/C=C/C=C/c1ccc2c(c1)OCO2)N1CCCCC1 [Piperine] | inactive: 0 |

Same assay, conditions: library: Prestwick; 2 uM; 2 weeks

| Structure (SMILES) | neuronal differentiation score |
| --- | --- |
| C=C(CC)C(=O)c1ccc(OCC(=O)O)c(Cl)c1Cl [Ethacrynic acid] | inactive: 0 |
| NNC(=O)c1ccncc1 [Isoniazid] | inactive: 0 |
| CCOc1ccc2ccccc2c1C(=O)N[C@@H]1C(=O)N2[C@@H]1SC(C)(C)[C@@H]2C(=O)O [Nafcillin sodium salt monohydrate] | inactive: 0 |
| COc1ncnc(NS(=O)(=O)c2ccc(N)cc2)c1OC [Sulfadoxine] | inactive: 0 |
| CCN(CC)C(=O)c1ccc(O)c(OC)c1 [Ethamivan] | inactive: 0 |
| COc1cc(C)nc(-n2nc(C)cc2OC)n1 [Epirizole] | inactive: 0 |
| CO[C@H]1/C=C/O[C@@]2(C)Oc3c(C)c(O)c4c(O)c(c(/C=N/N5CCN(C6CCCC6)CC5)c(O)c4c3C2=O)NC(=O)/C(C)=C\C=C\[C@H](C)[C@H](O)[C@@H](C)[C@@H](O)[C@@H](C)[C@H](OC(C)=O)[C@@H]1C [Rifapentine] | inactive: 0 |
| O=P(O)(O)C(Cl)(Cl)P(=O)(O)O [Clodronate] | inactive: 0 |
| Nc1ccn([C@H]2CC[C@@H](CO)O2)c(=O)n1 [Zalcitabine] | inactive: 0 |
| Cc1cn([C@H]2C[C@H](N=[N+]=[N-])[C@@H](CO)O2)c(=O)[nH]c1=O [Zidovudine, AZT] | inactive: 0 |

Same assay, conditions: library: Spectrum; 2 uM; 2 weeks

| Structure (SMILES) | neuronal differentiation score |
| --- | --- |
| O=C(O)c1cc2cc(F)ccc2[nH]1 | inactive: 0 |
| CC/C=C\C/C=C\C/C=C\C/C=C\C/C=C\C/C=C\CCC(=O)O | inactive: 0 |
| CC(=O)Nc1ccc(O)cc1 | inactive: 1 |
| OCc1c[nH]c2ccccc12 | inactive: 0 |
| COC(=O)/C=C/C(C)=C\C=C\C(C)=C\C=C\C=C(C)\C=C\C=C(C)\C=C\C(=O)O | inactive: 0 |
| O=c1[nH]cnc2c1ncn2[C@@H]1O[C@H](CO)[C@@H](O)[C@H]1O | inactive: 0 |
| CCn1cc(C(=O)O)c(=O)c2ccc(C)nc21 | inactive: 1 |
| COc1cc2nc(N3CCN(C(=O)C4COc5ccccc5O4)CC3)nc(N)c2cc1OC (stereo unspecified) | inactive: 0 |
| CC=CC(=O)N(CC)c1ccccc1C | inactive: 0 |
| NC[C@H]1O[C@H](O[C@H]2[C@H](O[C@@H]3O[C@H](CO)[C@@H](O)[C@H]3O)[C@@H](O)[C@H](N)C[C@@H]2N)[C@H](N)[C@@H](O)[C@@H]1O | inactive: 0 |
| COc1ccc(NS(=O)(=O)c2ccc(N)cc2)nn1 | inactive: 0 |
| NC(=O)NC1NC(=O)NC1=O (stereo unspecified) | inactive: 0 |

A second format for part of the listing above:
Structure (SMILES) | neuronal differentiation score
OCc1c[nH]c2ccccc12 | inactive: 0
COC(=O)/C=C/C(C)=C\C=C\C(C)=C\C=C\C=C(C)\C=C\C=C(C)\C=C\C(=O)O | inactive: 0

Same assay, conditions: library: Tocriscreen; 2 uM; 2 weeks

| Structure (SMILES) | neuronal differentiation score |
| --- | --- |
| CCCC[P+](CCCC)(CCCC)Cc1ccc(NC(=O)C(Cc2ccc3ccccc3c2)NC(=NC2CCCCC2)NC2CCCCC2)cc1 (stereo unspecified) | inactive: 0 |
| COc1cc(N)c(Cl)cc1C(=O)OCCCN1CCCCC1 | inactive: 0 |
| N=C(N)S/C=C\C(=O)O [ZAPA sulphate] | inactive: 0 |
| CCCCN1CCC(CCC(=O)c2cc(Cl)c(N)cc2OC)CC1 | inactive: 0 |
| N[C@H](C(=O)O)c1ccc(C(=O)O)c(O)c1 [(S)-4-Carboxy-3-hydroxyphenylglycine] | inactive: 0 |

These compounds were tested on ReNCell VM (assay: dopaminergic neuron differentiation score (TH+ cell fraction vs untreated, manual image score) (score (0 to 3)); higher = more TH+ dopaminergic neuron differentiation). Details: library: LOPAC; 2 uM; 4 weeks; BDNF 10 ng/ml + GDNF 10 ng/ml.

| Structure (SMILES) | dopaminergic neuron differentiation score |
| --- | --- |
| O=C(O)c1ccccc1Nc1ccccc1 [N-Phenylanthranilic acid] | inactive: 0 |
| CC(C)(C)[C@]1(O)CCN2C[C@H]3c4ccccc4CCc4cccc(c43)[C@@H]2C1 [(+)-Butaclamol hydrochloride] | inactive: 1 |
| O=C(Nc1nc2ccccc2n1CCN1CCOCC1)c1cccc([N+](=O)[O-])c1 [IRAK-1/4 Inhibitor I] | inactive: 0 |
| N[C@@H](CS(=O)O)C(=O)O [L-Cysteinesulfinic Acid] | inactive: 0 |
| N[C@@H](COP(=O)(O)O)C(=O)O [O-Phospho-L-serine] | inactive: 0 |
| CCN(CC)CCNC(=O)c1cc(Cl)c(N)cc1OC [Metoclopramide hydrochloride] | inactive: 0 |
| C=CC[C@H](N)C(=O)O [L-allylglycine] | inactive: 0 |
| CCN1C(=O)C=CC1=O [N-Ethylmaleimide] | inactive: 0 |

Reference: the supplement of paper PMC4635364
